Measured values reported in the supplement of paper PMC10849652.
The list shows a part of the results. Residues, ends and D or L forms follow the SMILES beside them. *: point of attachment. Cbz = O=C(OCc1ccccc1)*

By UniProt entry, the sequences of proteins in these tests, tags left out. Where a name states a change or a piece, a line headed by the entry shows the natural chain unless it says otherwise.
UniProt Q9Y295: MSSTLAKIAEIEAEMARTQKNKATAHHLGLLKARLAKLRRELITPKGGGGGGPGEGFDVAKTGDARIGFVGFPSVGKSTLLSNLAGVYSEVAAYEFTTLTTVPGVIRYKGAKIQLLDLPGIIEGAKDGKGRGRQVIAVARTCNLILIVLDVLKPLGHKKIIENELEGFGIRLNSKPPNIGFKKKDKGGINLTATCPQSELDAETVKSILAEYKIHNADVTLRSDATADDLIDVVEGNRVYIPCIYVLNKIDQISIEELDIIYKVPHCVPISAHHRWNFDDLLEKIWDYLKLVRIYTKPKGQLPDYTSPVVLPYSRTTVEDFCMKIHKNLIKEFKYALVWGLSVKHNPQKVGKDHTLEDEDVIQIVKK
UniProt O75937: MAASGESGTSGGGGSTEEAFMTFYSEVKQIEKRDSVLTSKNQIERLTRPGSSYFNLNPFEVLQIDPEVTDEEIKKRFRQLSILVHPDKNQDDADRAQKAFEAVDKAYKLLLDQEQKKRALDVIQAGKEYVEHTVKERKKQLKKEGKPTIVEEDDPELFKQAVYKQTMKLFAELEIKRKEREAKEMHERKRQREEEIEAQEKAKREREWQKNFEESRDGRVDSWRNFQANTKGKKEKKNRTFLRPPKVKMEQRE
UniProt O43237, whole entry, looked up: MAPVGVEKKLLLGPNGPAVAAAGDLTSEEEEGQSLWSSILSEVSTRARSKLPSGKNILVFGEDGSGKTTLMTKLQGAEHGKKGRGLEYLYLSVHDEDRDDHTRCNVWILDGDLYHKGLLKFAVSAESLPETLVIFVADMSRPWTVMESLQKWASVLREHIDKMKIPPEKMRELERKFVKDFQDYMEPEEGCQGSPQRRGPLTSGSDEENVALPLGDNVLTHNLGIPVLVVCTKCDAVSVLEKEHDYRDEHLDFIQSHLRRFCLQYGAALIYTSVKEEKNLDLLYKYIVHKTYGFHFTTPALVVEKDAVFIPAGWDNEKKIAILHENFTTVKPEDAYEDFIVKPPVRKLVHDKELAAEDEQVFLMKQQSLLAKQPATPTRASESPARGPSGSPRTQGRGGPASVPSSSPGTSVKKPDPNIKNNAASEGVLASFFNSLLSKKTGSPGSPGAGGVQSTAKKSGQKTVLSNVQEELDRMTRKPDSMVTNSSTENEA
UniProt Q99615: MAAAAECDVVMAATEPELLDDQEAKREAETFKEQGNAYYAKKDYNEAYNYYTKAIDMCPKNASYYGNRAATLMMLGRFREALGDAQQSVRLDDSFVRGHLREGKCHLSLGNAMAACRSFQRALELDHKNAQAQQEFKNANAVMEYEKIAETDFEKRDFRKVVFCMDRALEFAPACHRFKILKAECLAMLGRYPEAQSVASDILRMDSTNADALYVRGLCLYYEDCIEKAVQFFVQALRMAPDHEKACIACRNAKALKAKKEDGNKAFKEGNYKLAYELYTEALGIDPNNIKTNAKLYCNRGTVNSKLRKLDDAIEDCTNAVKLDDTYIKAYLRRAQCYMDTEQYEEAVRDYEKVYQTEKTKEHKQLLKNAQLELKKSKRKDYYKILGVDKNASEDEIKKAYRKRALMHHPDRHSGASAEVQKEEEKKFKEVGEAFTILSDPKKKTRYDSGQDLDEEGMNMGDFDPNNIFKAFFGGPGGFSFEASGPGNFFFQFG
UniProt O75923: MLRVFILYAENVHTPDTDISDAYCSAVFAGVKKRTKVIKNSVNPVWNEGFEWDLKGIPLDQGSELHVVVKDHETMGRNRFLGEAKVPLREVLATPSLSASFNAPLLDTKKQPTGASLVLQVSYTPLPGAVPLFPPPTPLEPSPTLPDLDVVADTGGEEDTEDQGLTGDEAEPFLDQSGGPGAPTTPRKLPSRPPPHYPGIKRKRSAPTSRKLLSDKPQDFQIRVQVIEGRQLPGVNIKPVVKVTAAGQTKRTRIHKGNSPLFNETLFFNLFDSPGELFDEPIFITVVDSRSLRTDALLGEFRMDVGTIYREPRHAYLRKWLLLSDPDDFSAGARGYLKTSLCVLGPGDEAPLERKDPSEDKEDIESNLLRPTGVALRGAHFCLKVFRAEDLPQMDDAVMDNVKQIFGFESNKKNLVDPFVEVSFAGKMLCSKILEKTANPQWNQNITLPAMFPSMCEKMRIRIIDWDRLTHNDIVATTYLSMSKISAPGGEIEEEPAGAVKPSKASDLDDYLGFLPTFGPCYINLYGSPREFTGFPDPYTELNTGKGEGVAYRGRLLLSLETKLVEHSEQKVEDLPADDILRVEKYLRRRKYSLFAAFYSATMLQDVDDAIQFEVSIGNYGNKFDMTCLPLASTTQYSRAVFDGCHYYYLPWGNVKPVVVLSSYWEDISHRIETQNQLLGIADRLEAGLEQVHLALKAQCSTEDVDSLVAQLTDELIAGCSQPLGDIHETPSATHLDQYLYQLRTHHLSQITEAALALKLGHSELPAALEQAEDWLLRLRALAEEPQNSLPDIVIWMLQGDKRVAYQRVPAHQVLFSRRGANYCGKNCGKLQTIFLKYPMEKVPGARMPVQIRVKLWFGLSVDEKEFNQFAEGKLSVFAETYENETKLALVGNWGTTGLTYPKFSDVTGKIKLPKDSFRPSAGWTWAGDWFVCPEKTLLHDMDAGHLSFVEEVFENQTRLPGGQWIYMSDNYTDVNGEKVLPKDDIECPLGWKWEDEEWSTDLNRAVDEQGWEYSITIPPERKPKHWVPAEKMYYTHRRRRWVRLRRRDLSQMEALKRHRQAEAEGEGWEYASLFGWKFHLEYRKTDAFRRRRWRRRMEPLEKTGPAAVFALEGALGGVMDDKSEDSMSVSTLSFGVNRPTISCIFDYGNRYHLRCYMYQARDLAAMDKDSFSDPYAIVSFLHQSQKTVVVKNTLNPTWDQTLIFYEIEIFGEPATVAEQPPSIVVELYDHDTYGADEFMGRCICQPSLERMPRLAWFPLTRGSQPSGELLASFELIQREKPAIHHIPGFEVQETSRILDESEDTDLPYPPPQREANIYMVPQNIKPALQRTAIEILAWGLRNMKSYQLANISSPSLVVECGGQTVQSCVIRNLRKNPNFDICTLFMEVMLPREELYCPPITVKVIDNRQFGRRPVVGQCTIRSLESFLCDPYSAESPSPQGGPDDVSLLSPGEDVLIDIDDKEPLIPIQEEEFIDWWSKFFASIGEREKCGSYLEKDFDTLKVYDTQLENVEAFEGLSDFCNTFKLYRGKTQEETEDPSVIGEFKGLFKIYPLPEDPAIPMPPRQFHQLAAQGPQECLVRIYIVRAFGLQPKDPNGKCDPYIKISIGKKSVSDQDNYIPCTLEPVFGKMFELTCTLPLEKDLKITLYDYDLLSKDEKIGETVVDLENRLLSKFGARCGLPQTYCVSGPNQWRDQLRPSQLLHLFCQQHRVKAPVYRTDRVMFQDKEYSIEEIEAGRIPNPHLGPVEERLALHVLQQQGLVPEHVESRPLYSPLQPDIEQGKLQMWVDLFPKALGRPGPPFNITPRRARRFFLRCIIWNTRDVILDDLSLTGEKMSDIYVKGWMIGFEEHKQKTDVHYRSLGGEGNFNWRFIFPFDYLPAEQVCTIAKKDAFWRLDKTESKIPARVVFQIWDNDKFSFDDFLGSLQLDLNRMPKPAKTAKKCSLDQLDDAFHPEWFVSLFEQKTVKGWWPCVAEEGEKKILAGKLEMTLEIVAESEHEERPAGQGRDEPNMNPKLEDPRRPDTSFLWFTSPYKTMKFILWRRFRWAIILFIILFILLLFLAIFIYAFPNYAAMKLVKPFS
UniProt Q9H2P9: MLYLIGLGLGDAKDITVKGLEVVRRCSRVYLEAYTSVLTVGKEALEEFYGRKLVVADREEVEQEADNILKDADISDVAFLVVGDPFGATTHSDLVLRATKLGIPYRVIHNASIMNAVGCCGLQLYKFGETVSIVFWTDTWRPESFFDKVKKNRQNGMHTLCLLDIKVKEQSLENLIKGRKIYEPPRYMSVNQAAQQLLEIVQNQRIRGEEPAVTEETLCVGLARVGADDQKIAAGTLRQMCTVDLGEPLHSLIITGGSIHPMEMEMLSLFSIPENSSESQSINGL
UniProt Q8NBA8: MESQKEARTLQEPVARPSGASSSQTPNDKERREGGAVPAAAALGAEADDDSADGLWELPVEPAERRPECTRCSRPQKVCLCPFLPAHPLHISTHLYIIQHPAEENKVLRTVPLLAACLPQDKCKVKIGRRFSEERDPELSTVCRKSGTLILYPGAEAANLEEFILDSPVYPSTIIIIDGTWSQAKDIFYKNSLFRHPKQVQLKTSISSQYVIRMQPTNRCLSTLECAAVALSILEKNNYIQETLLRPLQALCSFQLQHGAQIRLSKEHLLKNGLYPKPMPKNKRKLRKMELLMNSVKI

Assays:
Experiment in all cases: log2 fold change, soluble protein after heating vs DMSO (PISA); higher = thermal stabilisation; K562 cells, 10 uM, 30 min; active = over 0.2 and 3.5 SD of the protein, either way, in both replicates (recomputed)
IRAK-1-4 Inhibitor I = compound: C1COCCN1CCN2C3=CC=CC=C3N=C2NC(=O)C4=CC(=CC=C4)[N+](=O)[O-] [IRAK-1-4 Inhibitor I]
In short: (§1)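 Values are thermal stability changes relative to control samples and are taken from duplicates. They are stated as log2 fold changes. Before quantification by TMTpro 16plex LC-MS/MS with equalised channel sums, K562 cells at 2×10^6 cells/mL were treated with 10 μM compound for 30 min, heated in aliquots for 3 min across 48°C-58°C, pooled, extracted in PBS with 0.5% NP-40 at 4°C, and centrifuged at 21,000xg for 90 min to give the soluble supernatant.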

ibrutinib = compound: C=CC(=O)N1CCC[C@@H](n2nc(-c3ccc(Oc4ccccc4)cc3)c3c(N)ncnc32)C1 [ibrutinib]
In short: as §1

[1] = compound: CC(=O)c1cnc2ccc(-c3cc(Cl)c(O)c(Cl)c3)nc2c1N[C@H]1CC[C@H](CN(C)C)CC1
In short: as §1

ralimetinib = compound: CC(C)(C)Cn1c(N)nc2ccc(-c3[nH]c(C(C)(C)C)nc3-c3ccc(F)cc3)nc21 [ralimetinib]
In short: as §1

[2] = compound: CC(C)(O)CC(=O)NCCn1ccc2ncnc(Nc3ccc(Oc4cccc(C(F)(F)F)c4)c(Cl)c3)c21
In short: as §1

[3] = compound: CC(C)C1=C2N=C(C=C(N2N=C1)NCC3=CC=CC=C3)NCCCCCCN
In short: as §1

[4] = compound: CC(C)C[C@@H](C=O)NC(=O)[C@H](CC(C)C)NC(=O)[C@H](CC(C)C)NC(=O)OCc1ccccc1
In short: as §1

pinometostat = compound: CC(C)N(C[C@H]1O[C@@H](n2cnc3c(N)ncnc32)[C@H](O)[C@@H]1O)[C@H]1C[C@@H](CCc2nc3cc(C(C)(C)C)ccc3[nH]2)C1 [pinometostat]
In short: as §1

[5] = compound: CC1=C(C(CC(=O)N1)C2=CC=C(C=C2)C(F)(F)F)C(=O)NC3=C(C=C4C(=C3)C=NN4)F
In short: as §1

[6] = compound: CC1=C(C2=C(C=C1)C(=O)C3=CC=CC=C3N2CCCN)C
In short: as §1

[7] = compound: CC1=C(C=C(C=C1)NC(=O)C2=CC(=CC=C2)C(C)(C)C#N)NC3=CC4=C(C=C3)N=CN(C4=O)C
In short: as §1

[8] = compound: CC1=C(C=C(C=C1)NC(=O)C2=CC(=CC=C2)N(C)C)NC(=O)C3=CC=C(C=C3)O
In short: as §1

[9] = compound: CC1=CC=C(C=C1)SC2=C3C=C(SC3=CN=C2)C(=O)N
In short: as §1

[10] = compound: CC1=NC(=CC=C1)C2=C(N=C(N2)C(C)(C)C)C3=CC4=NC=CN=C4C=C3
In short: as §1

Nexturastat A = compound: CCCCN(Cc1ccc(C(=O)NO)cc1)C(=O)Nc1ccccc1 [Nexturastat A]
In short: as §1

vemurafenib = compound: CCCS(=O)(=O)Nc1ccc(F)c(C(=O)c2c[nH]c3ncc(-c4ccc(Cl)cc4)cc23)c1F [vemurafenib]
In short: as §1

[11] = compound: CCCS(=O)(=O)Nc1ccc(F)c(C(=O)c2c[nH]c3ncc(Cl)cc23)c1F
In short: as §1

[12] = compound: CCCc1cc(C)[nH]c(=O)c1CNC(=O)c1cc(-c2ccnc(N3CCN(C)CC3)c2)cc2c1cnn2C(C)C
In short: as §1

givinostat = compound: CCN(CC)Cc1ccc2cc(COC(=O)Nc3ccc(C(=O)NO)cc3)ccc2c1 [givinostat]
In short: as §1

barasertib = compound: CCN(CCCOc1ccc2c(Nc3cc(CC(=O)Nc4cccc(F)c4)[nH]n3)ncnc2c1)CCOP(=O)(O)O [barasertib]
In short: as §1

Row | Target | log2 fold change (IRAK-1-4 Inhibitor I) | log2 fold change (ibrutinib) | log2 fold change [1] | log2 fold change (ralimetinib) | log2 fold change [2] | log2 fold change [3] | log2 fold change [4] | log2 fold change (pinometostat) | log2 fold change [5] | log2 fold change [6] | log2 fold change [7] | log2 fold change [8] | log2 fold change [9] | log2 fold change [10] | log2 fold change (Nexturastat A) | log2 fold change (vemurafenib) | log2 fold change [11] | log2 fold change [12] | log2 fold change (givinostat) | log2 fold change (barasertib)
1 | DRG1 (UniProt Q9Y295) | inactive: -0.031 | inactive: 0.017 | inactive: 0.034 | inactive: 0.041 | inactive: 0.022 | inactive: 0.071 | inactive: 0.061 | inactive: 0.086 | inactive: -0.017 | inactive: 0.192 | inactive: 0.033 | inactive: -0.02 | inactive: -0.043 | inactive: -0.023 | inactive: 0.05 | inactive: -0.027 | inactive: -0.02 | inactive: 0.015 | inactive: -0.029 | inactive: -0.042
2 | DPP7 (UniProt Q9UHL4) | inactive: 0.047 | inactive: 0.044 | inactive: -0.029 | inactive: 0.03 | inactive: 0.083 | inactive: -0.018 | inactive: -0.115 | inactive: -0.003 | inactive: 0.007 | inactive: -0.002 | inactive: -0.031 | inactive: 0.015 | inactive: 0.029 | inactive: 0.015 | inactive: -0.023 | inactive: -0.014 | inactive: -0.025 | inactive: -0.019 | inactive: 0.006 | inactive: 0.035
3 | DNAJC8 (UniProt O75937) | inactive: -0.01 | inactive: -0.03 | inactive: -0.031 | inactive: -0.025 | inactive: -0.012 | inactive: 0.005 | inactive: 0.006 | inactive: -0.028 | inactive: 0.001 | inactive: 0.006 | inactive: 0 | inactive: -0.005 | inactive: 0.004 | inactive: 0.084 | inactive: -0.133 | inactive: 0.035 | inactive: 0.004 | inactive: -0.022 | inactive: -0.043 | inactive: 0.04
4 | DYNC1LI2 (UniProt O43237) | inactive: 0.089 | inactive: 0.083 | inactive: 0.099 | inactive: 0.124 | inactive: 0.03 | inactive: -0.067 | inactive: 0.07 | inactive: 0.146 | – | inactive: 0.094 | inactive: 0.013 | inactive: -0.093 | inactive: -0.049 | inactive: -0.193 | active: 0.646 | inactive: 0.001 | inactive: -0.027 | inactive: 0.076 | inactive: 0.017 | inactive: 0.05
5 | DNAJC7 (UniProt Q99615) | inactive: -0.041 | inactive: -0.012 | inactive: -0.007 | inactive: -0.014 | inactive: -0.022 | inactive: -0.117 | inactive: 0.023 | inactive: -0.034 | – | inactive: 0.04 | inactive: -0.006 | inactive: -0.037 | inactive: 0.029 | inactive: 0.042 | inactive: -0.01 | inactive: 0.029 | inactive: 0.098 | inactive: 0.02 | inactive: 0.032 | inactive: 0.064
6 | DYSF isoform 13 (UniProt O75923) | inactive: -0.177 | inactive: 0.118 | inactive: 0.047 | inactive: 0.131 | inactive: 0.049 | inactive: 0.2 | inactive: 0.088 | inactive: 0.17 | inactive: 0.174 | inactive: -0.109 | inactive: 0.064 | inactive: -0.017 | – | inactive: 0.115 | inactive: 0.306 | inactive: -0.009 | – | inactive: 0.088 | inactive: -0.115 | inactive: 0.013
7 | DPH5 isoform 5 (UniProt Q9H2P9) | inactive: 0.036 | inactive: 0.025 | inactive: -0.01 | inactive: -0.018 | inactive: -0.053 | inactive: 0.045 | inactive: -0.071 | inactive: -0.009 | – | inactive: 0.027 | inactive: 0.009 | inactive: -0.01 | inactive: 0.046 | inactive: 0.042 | inactive: -0.079 | inactive: -0.041 | inactive: 0.087 | inactive: -0.045 | inactive: -0.105 | inactive: -0.006
8 | DTWD2 (UniProt Q8NBA8) | inactive: 0.094 | inactive: 0.001 | inactive: 0.009 | inactive: 0.092 | inactive: -0.07 | inactive: -0.179 | inactive: 0.003 | inactive: 0.082 | – | inactive: -0.004 | inactive: 0.019 | inactive: -0.025 | inactive: 0.197 | inactive: -0.048 | inactive: 0.009 | inactive: -0.079 | inactive: 0.043 | inactive: -0.006 | inactive: -0.139 | inactive: 0.056

Reprinted at random: two entries already listed, in no set order.
Row | Target | log2 fold change (IRAK-1-4 Inhibitor I) | log2 fold change (ibrutinib) | log2 fold change [1] | log2 fold change (ralimetinib) | log2 fold change [2] | log2 fold change [3] | log2 fold change [4] | log2 fold change (pinometostat) | log2 fold change [5] | log2 fold change [6] | log2 fold change [7] | log2 fold change [8] | log2 fold change [9] | log2 fold change [10] | log2 fold change (Nexturastat A) | log2 fold change (vemurafenib) | log2 fold change [11] | log2 fold change [12] | log2 fold change (givinostat) | log2 fold change (barasertib)
2 | DPP7 (UniProt Q9UHL4) | inactive: 0.047 | inactive: 0.044 | inactive: -0.029 | inactive: 0.03 | inactive: 0.083 | inactive: -0.018 | inactive: -0.115 | inactive: -0.003 | inactive: 0.007 | inactive: -0.002 | inactive: -0.031 | inactive: 0.015 | inactive: 0.029 | inactive: 0.015 | inactive: -0.023 | inactive: -0.014 | inactive: -0.025 | inactive: -0.019 | inactive: 0.006 | inactive: 0.035
5 | DNAJC7 (UniProt Q99615) | inactive: -0.041 | inactive: -0.012 | inactive: -0.007 | inactive: -0.014 | inactive: -0.022 | inactive: -0.117 | inactive: 0.023 | inactive: -0.034 | – | inactive: 0.04 | inactive: -0.006 | inactive: -0.037 | inactive: 0.029 | inactive: 0.042 | inactive: -0.01 | inactive: 0.029 | inactive: 0.098 | inactive: 0.02 | inactive: 0.032 | inactive: 0.064
